Laboratory results published in article doi:10.1101/2025.03.13.643117.
Results are given in words; binding and its absence hold for the method and conditions named. For some of these results: Binding seen in cells or lysates may run through a third protein. Some binding calls cover weakened binding; strength is not graded here.

The chains behind the UniProt entries cited, without tags or fusion partners.
UniProt I6YC53, whole entry: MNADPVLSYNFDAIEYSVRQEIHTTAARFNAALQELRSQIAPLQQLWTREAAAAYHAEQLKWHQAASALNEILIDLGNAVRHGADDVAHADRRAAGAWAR
UniProt P9WNH6, whole entry: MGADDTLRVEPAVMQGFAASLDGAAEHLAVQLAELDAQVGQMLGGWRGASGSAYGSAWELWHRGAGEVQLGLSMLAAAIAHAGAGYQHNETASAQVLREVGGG
UniProt I6Y3I6, whole entry: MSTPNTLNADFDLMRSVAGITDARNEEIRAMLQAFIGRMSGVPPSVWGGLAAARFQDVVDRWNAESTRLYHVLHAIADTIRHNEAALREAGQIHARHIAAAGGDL
UniProt P9WNH8, whole entry: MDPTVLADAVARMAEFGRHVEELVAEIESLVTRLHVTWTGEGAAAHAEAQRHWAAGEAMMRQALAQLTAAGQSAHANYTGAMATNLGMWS

Key:
[1] = biological target: EsxT-His8 (M. tuberculosis) (UniProt I6YC53); test: pull-down
[2] = biological target: EsxF_(His8) (M. tuberculosis) (UniProt P9WNH6); test: pull-down
[3] = biological target: EsxT (of the purified EsxUT complex) (M. tuberculosis) (UniProt I6YC53); test: co-purification

## EsxU (control pull-down with EsxT-His8) (from UniProt I6Y3I6 1-105)
[1]
  binding: binds

## EsxE (control pull-down with EsxT-His8) (from UniProt P9WNH8 1-90)
[1]
  binding: binds

## EsxE_(FLAG) (from UniProt P9WNH8 1-90)
[2]
  binding: binds

## HAEsxU (from UniProt I6Y3I6 1-105)
[2]
  binding: binds

## EsxTMyc (from UniProt I6YC53 1-100)
[2]
  binding: binds

## EsxU (of the purified EsxUT complex) (from UniProt I6Y3I6 1-105)
[3]
  binding: binds

## EsxF (control pull-down with EsxT-His8) (from UniProt P9WNH6 1-103)
[1]
  binding: binds
